No constants are given. Whether binding was seen depends on the method and setting. Binding can be weak; no strength is given.
Biological target: α2-Macroglobulin
Assay: ELISA; coated glycoprotein, biotin-labeled lectin

binding: binds
B1: Aleuria aurantia lectin (protein, UniProt P18891 2-313, looked up)
chain: PTEFLYTSKIAAISWAATGGRQQRVYFQDLNGKIREAQRGGDNPWTGGSSQNVIGEAKLFSPLAAVTWKSAQGIQIRVYCVNKDNILSEFVYDGSKWITGQLGSVGVKVGSNSKLAALQWGGSESAPPNIRVYYQKSNGSGSSIHEYVWSGKWTAGASFGSTVPGTGIGATAIGPGRLRIYYQATDNKIREHCWDSNSWYVGGFSASASAGVSIAAISWGSTPNIRVYWQKGREELYEAAYGGSWNTPGQIKDASRPTPSLPDTFIAANSSGNIDISVFFQASGVSLQQWQWISGKGWSIGAVVPTGTPAGW
modifications: biotin label (site not stated)

From patent US20120244563A1
